4 molecules from US20100048686A1, “Perfume Composition For Temperature Sense Control, Sense Control Article, Sense Control Method, And Perfume Map” (SHISEIDO CO., LTD., priority 2003, published 2010) can be followed below.

This data set deals with test subjects. The data set can be described thus: assessment of temperature image and aroma image words of raw material perfumes on odor paper/cotton. Particulars: average; for Aroma image word: Transparent: seven-point scale 0 (do not feel at all) to 6 (strongly feel); for Aroma image word: Bracing / Aroma image word: Bright / Aroma image word: Mild / Aroma image word: Sultry / Aroma image word: Sweet / Aroma image word: Thick: seven-point scale 0 to 6. It is filed as in vivo, human.

Some results come without the dose or concentration used.

On to `CCCCCCCC1CCC(=O)O1` (stereo not shown) [G, γ-undecalactone], for which the “Aroma image word: Transparent” value is given as 2.6, the “Aroma image word: Bracing” value is recorded as 1.5, the “Aroma image word: Bright” value was 4.1 and the “Aroma image word: Mild” value came to 3.9. Moreover, the “Aroma image word: Sultry” value is reported as 2.1, the “Aroma image word: Sweet” value is 4.3 and the “Aroma image word: Thick” value is listed as 2.9.
Take `COc1cc(C=O)ccc1O` [C, vanillin]: the “Aroma image word: Transparent” value is on record as 2.0, the “Aroma image word: Bracing” value worked out at 1.2, the “Aroma image word: Bright” value worked out at 3.6 and the “Aroma image word: Mild” value was 4.5. The “Aroma image word: Sultry” value was determined as 3.2, the “Aroma image word: Sweet” value worked out at 4.9 and the “Aroma image word: Thick” value amounted to 3.8.
With `CC1=CC(C)C(C=O)CC1` (stereo not shown) [E, 2,4-dimethyl-3-cyclohexenyl carboxyaldehyde], the “Aroma image word: Transparent” value stood at 3.2, the “Aroma image word: Bracing” value was 2.9, the “Aroma image word: Bright” value stood at 3.1 and the “Aroma image word: Mild” value worked out at 2.5. Further, the “Aroma image word: Sultry” value came to 1.6, the “Aroma image word: Sweet” value is reported as 2.6 and the “Aroma image word: Thick” value was 2.1.
Take `CC(C=O)Cc1ccc(C(C)(C)C)cc1` (stereo not drawn) [B, 4-tert-butyl-α-methylhydroxycinnamic aldehyde]: the “Aroma image word: Transparent” value turned out to be 3.8, the “Aroma image word: Bracing” value is on record as 2.8, the “Aroma image word: Bright” value is 3.8 and the “Aroma image word: Mild” value is on record as 3.6. The “Aroma image word: Sultry” value worked out at 2.1, the “Aroma image word: Sweet” value is 3.6 and the “Aroma image word: Thick” value was found to be 2.2.
